Reference: patent US9193722B2, “Tri-cyclic pyrazolopyridine kinase inhibitors” (Vertex Pharmaceuticals Incorporated, priority 2008, dated 2015)
Some of these results come from one statement about several compounds together.

The chains behind the UniProt entries cited, without tags or fusion partners. Where a name states a change or a piece, a line headed by the entry shows the natural chain unless it says otherwise.
UniProt Q04759: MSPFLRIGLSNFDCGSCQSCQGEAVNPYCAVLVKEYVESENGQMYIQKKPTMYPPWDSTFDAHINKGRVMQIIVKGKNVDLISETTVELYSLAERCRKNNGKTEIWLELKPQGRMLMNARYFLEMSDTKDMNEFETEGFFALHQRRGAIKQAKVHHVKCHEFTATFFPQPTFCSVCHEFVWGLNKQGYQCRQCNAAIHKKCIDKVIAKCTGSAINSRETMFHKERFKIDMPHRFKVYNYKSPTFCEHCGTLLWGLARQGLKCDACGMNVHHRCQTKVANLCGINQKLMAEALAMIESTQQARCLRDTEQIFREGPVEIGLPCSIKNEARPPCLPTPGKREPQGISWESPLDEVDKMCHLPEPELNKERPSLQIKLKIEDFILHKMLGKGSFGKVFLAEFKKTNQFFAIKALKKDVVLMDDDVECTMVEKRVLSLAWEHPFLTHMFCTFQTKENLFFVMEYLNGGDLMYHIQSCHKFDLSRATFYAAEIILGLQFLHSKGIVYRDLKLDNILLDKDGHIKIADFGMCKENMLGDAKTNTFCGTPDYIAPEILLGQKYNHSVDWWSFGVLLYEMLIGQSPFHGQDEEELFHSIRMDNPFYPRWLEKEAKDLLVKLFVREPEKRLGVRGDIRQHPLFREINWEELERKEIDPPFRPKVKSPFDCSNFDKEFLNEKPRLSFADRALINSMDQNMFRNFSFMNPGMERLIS
UniProt Q05655: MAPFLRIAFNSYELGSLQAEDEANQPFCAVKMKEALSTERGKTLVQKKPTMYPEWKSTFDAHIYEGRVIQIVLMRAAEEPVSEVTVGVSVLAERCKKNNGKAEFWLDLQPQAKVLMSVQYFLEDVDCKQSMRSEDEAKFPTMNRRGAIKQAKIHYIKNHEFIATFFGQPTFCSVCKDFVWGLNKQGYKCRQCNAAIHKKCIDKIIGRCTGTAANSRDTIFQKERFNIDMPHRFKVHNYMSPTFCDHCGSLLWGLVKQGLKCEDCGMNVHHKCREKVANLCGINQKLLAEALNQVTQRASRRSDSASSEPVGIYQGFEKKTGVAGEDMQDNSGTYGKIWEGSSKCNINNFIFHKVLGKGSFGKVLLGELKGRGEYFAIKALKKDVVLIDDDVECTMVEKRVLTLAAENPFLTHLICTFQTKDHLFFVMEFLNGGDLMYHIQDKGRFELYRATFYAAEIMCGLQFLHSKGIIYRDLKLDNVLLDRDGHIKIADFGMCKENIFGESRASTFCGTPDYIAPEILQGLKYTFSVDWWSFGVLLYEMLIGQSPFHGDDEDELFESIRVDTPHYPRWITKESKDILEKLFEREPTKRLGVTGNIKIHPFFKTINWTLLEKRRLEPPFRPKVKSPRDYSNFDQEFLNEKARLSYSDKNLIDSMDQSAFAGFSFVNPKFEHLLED

Key:
Assay type in all cases: biochemical
PKC theta kinase = PKC theta kinase (Homo sapiens, UniProt Q04759); experiment: PKC theta kinase inhibition, coupled-enzyme (NADH absorbance) assay, Ki; conditions: 240 μM ATP, 18 nM PKC theta kinase, 30° C.
Experimental: An assay buffer solution was prepared which consisted of 100 mM HEPES (pH 7.5), 10 mM MgCl2, 25 mM NaCl, 0.1 mM EDTA and 0.01% Brij. […] To 60 μL of this enzyme buffer, in a 384 well plate, was added 2 μL of VRT stock solution in DMSO. The mixture was allowed to equilibrate for 10 mins at 30° C. […] Ki values were calculated from initial rate data by non-linear regression using the Prism software package (Prism 4.0a, Graphpad Software, San Diego, Calif.).

PKC delta kinase = PKC delta kinase (Homo sapiens, UniProt Q05655); experiment: PKC delta kinase inhibition, coupled-enzyme (NADH absorbance) assay, Ki; conditions: 150 μM ATP, 46 nM PKC delta kinase, 30° C.
Experimental: (§1) An assay buffer solution was prepared which consisted of 100 mM HEPES (pH 7.5), 10 mM MgCl2, 25 mM NaCl, 0.1 mM EDTA and 0.01% Brij. […] To 16 μL of this enzyme buffer, in a 384 well plate, was added 1 μL of VRT stock solution in DMSO. The mixture was allowed to equilibrate for 10 mins at 30° C. The enzyme reaction was initiated by the addition of 16 μL stock ATP solution prepared in assay buffer to a final assay concentration of 150 μM. Initial rate data was determined from the rate of change of absorbance at 340 nm (corresponding to stoichiometric consumption of NADH) using a Molecular Devices Spectramax plate reader (Sunnyvale, Calif.) over 15 mins at 30° C. […] Ki values were calculated from initial rate data by non-linear regression using the Prism software package (Prism 4.0a, Graphpad Software, San Diego, Calif.).

PKC alpha kinase = PKC alpha kinase (Homo sapiens, UniProt P17252); experiment: PKC alpha kinase inhibition, coupled-enzyme (NADH absorbance) assay, Ki; conditions: 130 μM ATP, 4.5 nM PKC alpha kinase, 30° C.
Experimental: as §1, with “EDTA, 100 μM CaCl2” for “EDTA”, “130” for “150”

## CC(C)C(C)(O)C1CN(c2cc(CO)cc(-c3n[nH]c4ncccc34)n2)CCN1 (centres unmarked) [Compound 455]
PKC theta kinase
  Ki: < 50 nM
PKC delta kinase
  Ki: < 500 nM

## CCC(N)C1(C(F)(F)F)CCN(c2ccc(F)c(-c3n[nH]c4ncccc34)n2)C1 (centres unmarked) [Compound 449]
PKC alpha kinase
  Ki: > 1250 nM

## CC(C)C(C)(O)C1CN(c2ccc(F)c(-c3n[nH]c4ncccc34)n2)CCN1C (centres unmarked) [Compound 231]
PKC alpha kinase
  Ki: > 1250 nM

## CC(C)C(O)[C@@H]1CCCN(c2ccc(F)c(-c3n[nH]c4ncccc34)n2)C1 (some centres unmarked) [Compound 279]
PKC delta kinase
  Ki: > 1250 nM
PKC alpha kinase
  Ki: > 1250 nM

## N#CCCC1CN(c2ccc(C(F)(F)F)c(-c3n[nH]c4ncccc34)n2)CCC1O (centres unmarked) [Compound 460]
PKC alpha kinase
  Ki: > 1250 nM

## CC(O)(C1CC1)C1CN(c2ccc(F)c(-c3n[nH]c4ncccc34)n2)CCN1 (centres unmarked) [Compound 273]
PKC theta kinase
  Ki: < 50 nM

## CC(C)C(C)(O)C1CN(c2ccc(F)c(-c3n[nH]c4ncccc34)n2)CCN1C (centres unmarked) [Compound 229]
PKC theta kinase
  Ki: < 50 nM

## C[C@](O)(c1ccccc1)[C@@H]1CN(c2ccc(F)c(-c3n[nH]c4ncccc34)n2)CCN1 [Compound 276]
PKC delta kinase
  Ki: > 1250 nM
PKC alpha kinase
  Ki: > 1250 nM

## CC(C)(C)CC(N)C1CCCN(c2ccc(F)c(-c3n[nH]c4ncccc34)n2)C1 (centres unmarked) [Compound 318]
PKC theta kinase
  Ki: < 50 nM
PKC alpha kinase
  Ki: > 1250 nM

## CC(C)C(C)(O)C1CN(c2cccc(-c3n[nH]c4ncccc34)n2)CCN1 (centres unmarked) [Compound 178]
PKC delta kinase
  Ki: < 50 nM
PKC alpha kinase
  Ki: < 2800 nM

## NCC1CN(c2ccc(F)c(-c3n[nH]c4ncccc34)n2)CCC1O (centres unmarked) [Compound 297]
PKC theta kinase
  Ki: < 500 nM
PKC alpha kinase
  Ki: > 1250 nM

## CC(N)[C@H]1CCCN(c2ccc(F)c(-c3n[nH]c4ncccc34)n2)C1 (some centres unmarked) [Compound 263]
PKC alpha kinase
  Ki: > 1250 nM

## CC(C)C(C)(O)C1CN(c2ccc(Cl)c(-c3n[nH]c4ncccc34)n2)CCN1 (centres unmarked) [Compound 438]
PKC theta kinase
  Ki: < 50 nM

## CC(C)C[C@H]1CN(c2cccc(-c3n[nH]c4ncccc34)n2)CC[C@H]1N [Compound 168]
PKC theta kinase
  Ki: < 50 nM
PKC delta kinase
  Ki: < 500 nM

## CNC(C1CCCN(c2ccc(F)c(-c3n[nH]c4ncccc34)n2)C1)C(C)(C)C (centres unmarked) [Compound 409]
PKC alpha kinase
  Ki: > 1250 nM

## CC(O)(C1CC1)C1CN(c2ccc(F)c(-c3n[nH]c4ncccc34)n2)CCN1 (centres unmarked) [Compound 271]
PKC theta kinase
  Ki: < 50 nM

## CC(C)(C)C(N)C1CCN(c2ccc(F)c(-c3n[nH]c4ncccc34)n2)C1 (centres unmarked) [Compound 422]
PKC theta kinase
  Ki: < 50 nM
PKC alpha kinase
  Ki: > 1250 nM

## CC(O)(c1ccccc1)C1CN(c2ccc(F)c(-c3n[nH]c4ncccc34)n2)CCN1 (centres unmarked) [Compound 323]
PKC alpha kinase
  Ki: > 1250 nM

## CCC(CC)C(N)C1CCCN(c2ccc(F)c(-c3n[nH]c4ncccc34)n2)C1 (centres unmarked) [Compound 392]
PKC theta kinase
  Ki: < 50 nM
PKC alpha kinase
  Ki: > 1250 nM

## Fc1ccc(N2CCCC(C3CCCN3)C2)nc1-c1n[nH]c2ncccc12 (centres unmarked) [Compound 315]
PKC delta kinase
  Ki: > 1250 nM
PKC alpha kinase
  Ki: > 1250 nM

## CC(C)C(C)(O)C1CN(c2cncc(-c3n[nH]c4ncccc34)n2)CCN1 (centres unmarked) [Compound 470]
PKC theta kinase
  Ki: < 50 nM

## CC(O)(C1CC1)C1CN(c2ccc(F)c(-c3n[nH]c4ncccc34)n2)CCN1 (centres unmarked) [Compound 272]
PKC theta kinase
  Ki: < 50 nM
